This note sets out measurements from US5518912A, “Endopeptidase” (priority 1993, dated 1996).

The series deals with endopeptidase from the skin of Xenopus laevis. The experiment in a line: Substrate specificity analyses: cleavage of peptides and analogues by the purified endopeptidase (acid gel, HPLC/amino acid analysis). The format is biochemical. The note with it: reversed-phase HPLC and amino acid analyses.

PGLa: the “peptide bond hydrolyzed by the endopeptidase (cleavage site)” value (from here on “peptide bond hydrolyzed”) is listed as “Gly^11 -Lys^12”.
As for caerulein precursor fragment [CPF], the “peptide bond hydrolyzed” value is on record as “Leu^10 -Lys^11”.
magainin 2-amide: the “peptide bond hydrolyzed” value is “Lys-Lys peptide bond at residues ten and eleven”.
For xenopsin precursor fragment [XPF], the “peptide bond hydrolyzed” value is reported as “Gly^11 -Lys^12”.
